Measured values: PMC7282668
No constants are given. Whether binding was seen depends on the method and setting. For some assays here: Binding calls can cover weak binding; strength is not graded here. Tags and fused reporters may be left off the sequences shown. For some assays here: In cells and extracts the contact can be indirect.

Columns and labels:
[1] = biological target: T1, ALP1, full length, yeast two-hybrid fusion (Arabidopsis thaliana) (UniProt Q94K49); experiment: two-hybrid; Gal4 bait and prey fusions in Y2HGold yeast; growth on -LWH (low stringency) and -LWHA (high stringency) media
T1 sequence: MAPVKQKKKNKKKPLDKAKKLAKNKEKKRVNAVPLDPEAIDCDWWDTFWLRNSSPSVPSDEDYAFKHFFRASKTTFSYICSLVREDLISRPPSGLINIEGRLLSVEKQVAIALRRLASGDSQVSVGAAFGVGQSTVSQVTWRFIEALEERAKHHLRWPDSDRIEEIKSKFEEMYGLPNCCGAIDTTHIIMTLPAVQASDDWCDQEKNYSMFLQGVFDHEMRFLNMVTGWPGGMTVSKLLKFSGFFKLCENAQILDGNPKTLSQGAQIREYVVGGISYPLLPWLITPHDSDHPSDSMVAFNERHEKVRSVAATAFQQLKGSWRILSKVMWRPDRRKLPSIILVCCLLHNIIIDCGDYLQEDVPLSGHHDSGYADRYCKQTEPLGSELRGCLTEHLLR

[2] = biological target: T2, LHP1, BiFC split YFP fusion (Arabidopsis thaliana) (UniProt Q946J8); experiment: split reporter; BiFC with split YFP fusions in N. benthamiana leaf epidermis after Agrobacterium infiltration; confocal microscopy
T2 sequence: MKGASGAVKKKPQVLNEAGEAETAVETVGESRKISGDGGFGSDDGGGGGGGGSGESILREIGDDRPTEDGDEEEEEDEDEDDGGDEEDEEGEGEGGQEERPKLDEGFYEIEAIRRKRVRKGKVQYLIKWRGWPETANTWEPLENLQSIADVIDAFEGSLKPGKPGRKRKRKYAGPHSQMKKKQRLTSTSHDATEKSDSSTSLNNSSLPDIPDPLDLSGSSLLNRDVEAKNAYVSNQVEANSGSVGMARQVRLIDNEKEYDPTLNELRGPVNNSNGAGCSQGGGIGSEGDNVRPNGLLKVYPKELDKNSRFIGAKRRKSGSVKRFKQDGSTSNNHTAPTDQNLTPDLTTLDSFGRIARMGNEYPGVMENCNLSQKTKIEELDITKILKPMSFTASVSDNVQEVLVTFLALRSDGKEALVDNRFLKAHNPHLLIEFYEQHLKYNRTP

[3] = biological target: T3, ALP1-nYFP (35S::ALP1-nYFP), BiFC fusion (Arabidopsis thaliana) (UniProt Q94K49); experiment: as above
T3 sequence: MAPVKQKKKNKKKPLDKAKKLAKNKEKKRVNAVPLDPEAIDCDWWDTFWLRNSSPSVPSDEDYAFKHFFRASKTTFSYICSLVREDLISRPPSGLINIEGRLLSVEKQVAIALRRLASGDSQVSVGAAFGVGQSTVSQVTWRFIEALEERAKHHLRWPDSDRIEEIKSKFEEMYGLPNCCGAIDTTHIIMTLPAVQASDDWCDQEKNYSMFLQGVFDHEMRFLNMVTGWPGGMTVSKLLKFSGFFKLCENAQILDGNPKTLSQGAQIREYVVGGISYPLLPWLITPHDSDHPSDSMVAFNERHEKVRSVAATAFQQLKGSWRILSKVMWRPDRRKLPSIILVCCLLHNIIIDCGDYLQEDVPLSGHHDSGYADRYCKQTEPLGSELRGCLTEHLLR

[4] = biological target: T4, SWN, BiFC split YFP fusion (Arabidopsis thaliana) (UniProt Q9ZSM8); experiment: as above
T4 sequence: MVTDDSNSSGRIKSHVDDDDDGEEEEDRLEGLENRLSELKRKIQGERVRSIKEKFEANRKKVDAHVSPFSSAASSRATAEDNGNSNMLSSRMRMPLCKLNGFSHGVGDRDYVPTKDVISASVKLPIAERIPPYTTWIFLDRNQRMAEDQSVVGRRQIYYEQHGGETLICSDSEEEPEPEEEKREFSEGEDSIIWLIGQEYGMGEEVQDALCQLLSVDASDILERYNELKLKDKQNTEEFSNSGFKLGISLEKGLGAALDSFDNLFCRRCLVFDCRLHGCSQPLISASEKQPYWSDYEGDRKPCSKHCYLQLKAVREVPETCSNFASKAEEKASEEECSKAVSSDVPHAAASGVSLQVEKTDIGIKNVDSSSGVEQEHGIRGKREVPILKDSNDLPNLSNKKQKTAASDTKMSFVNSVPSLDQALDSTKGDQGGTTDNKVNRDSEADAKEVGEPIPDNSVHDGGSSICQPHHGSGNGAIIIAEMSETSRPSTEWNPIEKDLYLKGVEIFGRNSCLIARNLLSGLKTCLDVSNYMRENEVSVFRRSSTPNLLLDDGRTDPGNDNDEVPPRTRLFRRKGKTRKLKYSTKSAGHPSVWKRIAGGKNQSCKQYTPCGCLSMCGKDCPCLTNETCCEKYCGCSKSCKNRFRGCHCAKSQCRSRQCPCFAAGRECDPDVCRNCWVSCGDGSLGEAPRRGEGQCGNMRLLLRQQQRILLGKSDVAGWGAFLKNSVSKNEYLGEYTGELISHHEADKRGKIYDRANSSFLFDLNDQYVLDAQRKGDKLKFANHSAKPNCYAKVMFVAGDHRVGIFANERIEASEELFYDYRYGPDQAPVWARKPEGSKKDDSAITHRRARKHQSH

[5] = biological target: T5, CLF, BiFC split YFP fusion (Arabidopsis thaliana) (UniProt P93831); experiment: as above
T5 sequence: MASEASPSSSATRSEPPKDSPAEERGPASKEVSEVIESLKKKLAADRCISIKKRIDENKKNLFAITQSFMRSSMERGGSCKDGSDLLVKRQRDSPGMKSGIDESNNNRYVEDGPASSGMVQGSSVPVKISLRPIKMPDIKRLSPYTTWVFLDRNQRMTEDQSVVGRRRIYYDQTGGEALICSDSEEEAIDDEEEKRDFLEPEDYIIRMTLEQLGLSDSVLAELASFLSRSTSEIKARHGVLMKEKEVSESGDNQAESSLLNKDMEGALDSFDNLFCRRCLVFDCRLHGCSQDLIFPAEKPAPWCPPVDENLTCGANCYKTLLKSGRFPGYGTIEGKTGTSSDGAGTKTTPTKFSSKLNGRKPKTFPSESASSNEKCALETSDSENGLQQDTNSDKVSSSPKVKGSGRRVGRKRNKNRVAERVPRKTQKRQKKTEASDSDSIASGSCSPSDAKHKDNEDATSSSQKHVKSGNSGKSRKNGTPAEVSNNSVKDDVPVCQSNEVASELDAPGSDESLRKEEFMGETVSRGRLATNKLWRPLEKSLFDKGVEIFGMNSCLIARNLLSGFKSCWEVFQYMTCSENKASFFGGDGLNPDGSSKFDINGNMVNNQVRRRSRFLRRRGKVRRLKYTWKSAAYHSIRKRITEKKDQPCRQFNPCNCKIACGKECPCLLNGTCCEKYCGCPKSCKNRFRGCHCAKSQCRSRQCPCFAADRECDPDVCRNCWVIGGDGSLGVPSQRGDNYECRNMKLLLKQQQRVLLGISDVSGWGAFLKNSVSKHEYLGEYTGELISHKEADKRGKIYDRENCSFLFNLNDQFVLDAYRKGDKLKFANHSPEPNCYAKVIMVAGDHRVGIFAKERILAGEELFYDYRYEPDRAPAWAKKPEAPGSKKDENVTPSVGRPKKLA

[6] = biological target: T6, EMF2, BiFC split YFP fusion (Arabidopsis thaliana) (UniProt Q8L6Y4); experiment: as above
T6 sequence: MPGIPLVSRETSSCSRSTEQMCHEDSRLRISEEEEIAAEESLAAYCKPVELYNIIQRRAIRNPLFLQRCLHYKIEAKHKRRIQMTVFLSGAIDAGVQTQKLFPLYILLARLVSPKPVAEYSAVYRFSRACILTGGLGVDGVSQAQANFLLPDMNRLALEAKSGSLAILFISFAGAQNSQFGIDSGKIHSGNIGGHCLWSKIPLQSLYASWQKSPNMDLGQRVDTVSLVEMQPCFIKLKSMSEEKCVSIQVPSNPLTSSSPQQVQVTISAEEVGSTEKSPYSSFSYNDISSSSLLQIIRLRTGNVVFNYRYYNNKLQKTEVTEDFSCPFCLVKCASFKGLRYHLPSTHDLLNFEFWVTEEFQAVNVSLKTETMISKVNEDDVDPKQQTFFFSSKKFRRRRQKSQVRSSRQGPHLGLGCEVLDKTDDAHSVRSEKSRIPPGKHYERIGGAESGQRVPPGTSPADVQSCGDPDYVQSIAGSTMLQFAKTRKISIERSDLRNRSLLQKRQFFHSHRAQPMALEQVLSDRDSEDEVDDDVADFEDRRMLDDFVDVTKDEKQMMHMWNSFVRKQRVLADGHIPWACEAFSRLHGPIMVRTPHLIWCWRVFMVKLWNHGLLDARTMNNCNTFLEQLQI

[7] = biological target: T7, FIE, BiFC split YFP fusion (Arabidopsis thaliana) (UniProt Q9LT47); experiment: as above
T7 sequence: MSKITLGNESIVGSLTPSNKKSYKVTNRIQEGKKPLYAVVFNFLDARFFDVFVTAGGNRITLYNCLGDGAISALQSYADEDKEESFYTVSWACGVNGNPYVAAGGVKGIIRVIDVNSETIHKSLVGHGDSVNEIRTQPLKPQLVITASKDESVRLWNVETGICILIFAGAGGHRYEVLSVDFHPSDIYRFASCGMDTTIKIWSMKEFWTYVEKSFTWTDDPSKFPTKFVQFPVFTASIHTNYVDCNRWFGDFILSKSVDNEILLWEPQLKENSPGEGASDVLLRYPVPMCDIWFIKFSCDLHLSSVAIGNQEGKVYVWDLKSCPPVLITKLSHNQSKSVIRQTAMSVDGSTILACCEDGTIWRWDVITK

[8] = biological target: ALP2, BiFC split YFP fusion (Arabidopsis thaliana); experiment: as above

## ALP2 C-terminal portion (amino acids 171-261), yeast two-hybrid fusion (Arabidopsis thaliana) (domain or fragment)
[1]
  binding: binds

## ALP2, BiFC split YFP fusion (Arabidopsis thaliana)
[2]
  binding: no binding
[3]
  binding: binds
[4]
  binding: no binding
[5]
  binding: no binding
[6]
  binding: no binding
[7]
  binding: no binding

B1: ALP1-1 (G273E) variant of ALP1, BiFC split YFP fusion (protein, UniProt Q94K49 1-396)
chain: MAPVKQKKKNKKKPLDKAKKLAKNKEKKRVNAVPLDPEAIDCDWWDTFWLRNSSPSVPSDEDYAFKHFFRASKTTFSYICSLVREDLISRPPSGLINIEGRLLSVEKQVAIALRRLASGDSQVSVGAAFGVGQSTVSQVTWRFIEALEERAKHHLRWPDSDRIEEIKSKFEEMYGLPNCCGAIDTTHIIMTLPAVQASDDWCDQEKNYSMFLQGVFDHEMRFLNMVTGWPGGMTVSKLLKFSGFFKLCENAQILDGNPKTLSQGAQIREYVVEGISYPLLPWLITPHDSDHPSDSMVAFNERHEKVRSVAATAFQQLKGSWRILSKVMWRPDRRKLPSIILVCCLLHNIIIDCGDYLQEDVPLSGHHDSGYADRYCKQTEPLGSELRGCLTEHLLR
[8]
  binding: no binding
